System: serum proteins
Assay: Identification of serum proteins bound to PI-2301 or Cop-1 by LC-MS/MS
Assay type: binding, normal mouse serum or normal human serum

plovamer [PI-2301]
serum proteins found bound (LC-MS/MS identification): several lipoproteins from the HDL and LDL complexes

From US20120282296A1, “METHODS FOR IMPROVING THE DESIGN, BIOAVAILABILITY, AND EFFICACY OF DIRECTED SEQUENCE POLYMER COMPOSITIONS VIA SERUM PROTEIN-BASED DETECTION OF DIRECTED SEQUENCE POLYMER COMPOSITIONS” (ARES TRADING SA, priority 2009, published 2012)
